Laboratory results from PMC7862700.
The entries are a selection whose mix differs from that of the whole data set. At the low end of the ranking, values are background and their order means little.

The chains behind the UniProt entries cited, without tags or fusion partners. Where a name states a change or a piece, a line headed by the entry shows the natural chain unless it says otherwise.
UniProt O43186: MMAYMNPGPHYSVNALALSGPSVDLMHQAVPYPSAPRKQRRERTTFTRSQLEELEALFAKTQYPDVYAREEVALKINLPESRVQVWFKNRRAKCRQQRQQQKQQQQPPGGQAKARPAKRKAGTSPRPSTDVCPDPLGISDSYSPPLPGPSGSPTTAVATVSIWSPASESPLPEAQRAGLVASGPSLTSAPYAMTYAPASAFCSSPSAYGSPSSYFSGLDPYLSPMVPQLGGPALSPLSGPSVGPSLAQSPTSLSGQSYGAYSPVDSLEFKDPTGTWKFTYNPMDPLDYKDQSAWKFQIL

These sequences were tested against CRX (UniProt O43186) (assay: DAPPL (digital affinity profiling via proximity ligation, sequencing)). Conditions: 10 mM Tris-HCl pH 7.5, 50 mM NaCl, 1 mM DTT, 4% glycerol, room temperature, 30 min; GST-TFs on glutathione beads, 16-mer random dsDNA library, 0.1% …; high values mean tight binding; double strand, one strand shown; scale: fold enrichment (6-mer frequency, TF over GST control).
For GGTTTG, the binding signal was 0.866. CTGCGT showed a binding signal of 0.808. Work on CTGTCC yielded a binding signal of 0.871. In the case of GAAACA, the binding signal was 0.836. TATTTA gave a binding signal of 2.47. Sequence GTACCT has a binding signal of 0.906. In the case of CAAACA, the binding signal was 0.854. Sequence CATGCC has a binding signal of 0.852. TGGTGC showed a binding signal of 0.799. For TTATAT, the binding signal was 2.47. CCGAAC was tested, and the binding signal was 1.17. With AGTATT the binding signal was 1.57. Work on ACTATT yielded a binding signal of 1.28. For CGCGTT, the binding signal was 0.874. With TATAGC the binding signal was 1.44. For GGCTAT, the binding signal was 0.936. In the case of ATGCCT, the binding signal was 1.28. Sequence AAAGGG has a binding signal of 1.08. Sequence CCCGGC has a binding signal of 0.875. GGCTAC was tested, and the binding signal was 0.889. In the case of ATGGTG, the binding signal was 0.895. Work on CACACC yielded a binding signal of 0.725. TTCGCA gave a binding signal of 1.28. CACCAA was tested, and the binding signal was 0.844. GCAACT was tested, and the binding signal was 0.878. Work on CGCACA yielded a binding signal of 0.746. Work on AAGGGC yielded a binding signal of 0.952. In the case of AACTGA, the binding signal was 0.987. TTTCGT showed a binding signal of 1.43. CATGAT gave a binding signal of 1.17. ACACGC gave a binding signal of 0.813. CACTAC was tested, and the binding signal was 0.937. GTTACT showed a binding signal of 1.03. Sequence CCGACG has a binding signal of 0.926. Sequence CCACTA has a binding signal of 1.12. In the case of CAAGAT, the binding signal was 1.23. With TTGTAA the binding signal was 1.62. With TATCCA the binding signal was 1.75. Work on CCTGAC yielded a binding signal of 1.11. For GTTAAG, the binding signal was 1.87.
